Measurements reported in US10682310B2, “Therapeutic compounds and formulations for intranasal delivery” (priority 2015, dated 2020).

Tested on: MDCKII-wt monolayer
Assay: Membrane permeation across MDCKII-wt monolayers (Transwell)
Details: DZP at near saturation solubility (85.7 μM, S=0.7), assay buffer pH 7.4, 32° C., n=4
Method: In vitro permeation studies were also performed on prodrug/enzyme mixtures prepared at various prodrug and enzyme concentrations. […] The experiments were carried out as follows. Maden Darby Canine Kidney-II wild type (MDCK-IIwt) cells were plated on thin membranes in a six well Transwell apparatus. Following confluence and washing, assay buffer (PBS, pH 7.4) was introduced into the basal side of the membrane. At time zero, solutions of various concentrations of prodrug were combined with 0.25 U/ml of A.O protease and introduced on the […] side of the membrane. Aliquots were then taken, with replacement, from both the basal and apical sides, and assayed for both drug and prodrug. The integrity of the membranes throughout the experiment was confirmed by transepithelial resistance (TEER) and inulin permeation measurements.
Following previously published procedures (Kapoor M, et al., AAPS J, 2014, 16, 3, 577-585; and Kapoor M, et al., Mol Pharm, 2013, 10, 9, 519-3524), Madin Darby canine kidney II wild type (MDCKII-wt: passages between 10 and 20) cells were cultured and grown as monolayers in 12-well Transwell plates ([…] pore size, polyester, Corning). Transepithelial electrical resistance (TEER) was measured to assure membrane integrity just prior to conversion/permeation experiments. […]

CN1C(=O)CN=C(c2ccccc2)c2cc(Cl)ccc21 [DZP, diazepam]
flux of DZP across MDCKII-wt monolayer: 0.00045±0.00007 μg/cm^2·sec
